The other results are listed elsewhere or left out.
Compound: Cc1cc(ccc1-c1ccccc1)C(=O)N1CCCN(CC1)C(=O)CCl [compound 10]
Assay: probe-labelled cysteine peptide fold change vs DMSO (competition) (log2 fold change); higher = less target engagement (more negative = stronger competition)
Conditions: THP-1, incubation time: 4 h
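Further: competitive profiling in live THP-1 cells: cysteine peptides tagged with an iodoacetamide desthiobiotin (IA-DTB) probe, intensity after compound treatment relative to DMSO-treated cells.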

Target | probe-labelled cysteine peptide fold change (10 µM) | probe-labelled cysteine peptide fold change (50 µM)
GOLGA2_Q08379_794_EPEAAAPAPGTGGDSVCGETHR (UniProt Q08379) | -0.155 | -0.495
GOLGB1_Q14789_2664_IAELEEELVCVQK (UniProt Q14789) | -0.0412 | 0.127
GOLGB1_Q14789_681_SLSAVPDIGQCHQDELER (UniProt Q14789) | -0.0231 | -0.125
GPATCH8_Q9UKJ3_508_VSETQMCESNSSK (UniProt Q9UKJ3) | -0.201 | -0.154
GLE1_Q53GS7_39_REDVLEECMSLPK (UniProt Q53GS7) | -0.281 | -0.388
GPATCH8_Q9UKJ3_402_EEGAGATEPEYYHYIPPAHCK (UniProt Q9UKJ3) | -0.052 | -0.134
GPS1_Q13098_67_LQFIADHCPTLR (UniProt Q13098) | -0.0482 | -0.0247
GNB1_P62873_149_ELAGHTGYLSCCR (UniProt P62873) | 0.0749 | -0.208
GPA33_Q99795_43_SVTLPCTYHTSTSSR (UniProt Q99795) | -0.0898 | 0.194
GOLGA3_Q08378_769_EDTICLLQNEK (UniProt Q08378) | -0.143 | -0.0659
GNB1_P62873_148_ELAGHTGYLSCCR (UniProt P62873) | 0.0142 | -0.309
GPHN_Q9NQX3_26_VGVLTVSDSCFR (UniProt Q9NQX3) | -0.0193 | -0.14
GMIP_Q9P107_599_LCQAFENGR (UniProt Q9P107) | 0.00442 | 0.0787
GPD1L_Q8N335_343_PVQEMLSCLQSHPEHT (UniProt Q8N335) | -0.0955 | 0.686
GLG1_Q92896_970_AKDDSELEGQVISCLK (UniProt Q92896) | -0.176 | 0.00524
GOLGB1_Q14789_3144_SDPEELREPQQSFSEAQQQLCNTR (UniProt Q14789) | 0.123 | -0.159
GNL3L_Q9NVN8_518_SNSMVDVCSVDR (UniProt Q9NVN8) | 0.104 | -0.177

Target | probe-labelled cysteine peptide fold change (10 µM) | probe-labelled cysteine peptide fold change (50 µM)
GOLGA4_Q13439_309_EQCTLLTSEK (UniProt Q13439) | -0.00902 | -0.189
GNL1_P36915_365_YKDGVVTIGCVGFPNVGK (UniProt P36915) | -0.0143 | -0.869
GNS_P15586_513_LMMLQSCSGPTCR (UniProt P15586) | 0.168 | 0.0702
GNL3_Q9BVP2_131_KLYCQELK (UniProt Q9BVP2) | -0.147 | -0.675
GNB1_P62873_204_LFVSGACDASAK (UniProt P62873) | -0.0971 | -0.11
GNL1_P36915_410_LCDCPGLIFPSLLPR (UniProt P36915) | -0.0539 | -0.2
GLA_P06280_56_FMCNLDCQEEPDSCISEK (UniProt P06280) | 0.07 | -0.0872
GPSM1_Q86YR5_497_APSSDEECFFDLLTK (UniProt Q86YR5) | -0.125 | -0.652
GMFB_P60983_8_SESLVVCDVAEDLVEK (UniProt P60983) | 0.00338 | -0.022
GNB1L_Q9BYB4_5_TAPCPPPPPDPQFVLR (UniProt Q9BYB4) | 0.181 | 0.239
GMDS_O60547_92_LHYGDLTDSTCLVK (UniProt O60547) | 0.0911 | 0.16
GMPPA_Q96IJ6_118_DQILAGSPEAFFVLNADVCSDFPLSAMLEAHRR (UniProt Q96IJ6) | 0.59 | 0.328
GLIPR1_P48060_192_GATCSACPNNDK (UniProt P48060) | 0.087 | -0.0726
GON4L_Q3T8J9_2140_AAEATVCANNSK (UniProt Q3T8J9) | -0.29 | -0.377
GOT2_P00505_106_EYLPIGGLAEFCK (UniProt P00505) | 0.0899 | 0.102
GNPDA2_Q8TDQ7_239_TIFVCDEDATLELR (UniProt Q8TDQ7) | 0.133 | 0.278
GMPR2_Q9P2T1_186_VGIGPGSVCTTR (UniProt Q9P2T1) | 0.0463 | -0.139

2 entries drawn at random from those above:
Target | probe-labelled cysteine peptide fold change (10 µM) | probe-labelled cysteine peptide fold change (50 µM)
GNPDA2_Q8TDQ7_239_TIFVCDEDATLELR (UniProt Q8TDQ7) | 0.133 | 0.278
GLA_P06280_56_FMCNLDCQEEPDSCISEK (UniProt P06280) | 0.07 | -0.0872
